In patent US20140037662A1:
These are yes or no findings as the source states them, for the method shown. Some binding calls cover weakened binding; strength is not graded here.

Protein sequences, listed by entry. Tags and fused reporters are not part of them. Residues count along the entry.
UniProt P04223, residues 22-369: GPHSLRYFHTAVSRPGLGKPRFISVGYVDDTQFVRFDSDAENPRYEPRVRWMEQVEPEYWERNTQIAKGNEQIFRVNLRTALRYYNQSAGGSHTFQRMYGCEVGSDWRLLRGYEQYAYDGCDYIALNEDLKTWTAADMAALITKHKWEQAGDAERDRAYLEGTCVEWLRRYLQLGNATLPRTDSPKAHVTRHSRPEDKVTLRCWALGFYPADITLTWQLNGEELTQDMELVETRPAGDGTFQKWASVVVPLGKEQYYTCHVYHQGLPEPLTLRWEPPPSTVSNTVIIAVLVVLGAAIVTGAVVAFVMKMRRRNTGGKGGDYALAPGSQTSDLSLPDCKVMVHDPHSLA

Molecular target: K^k class I MHC molecule on K^k-expressing T2 cells (mouse) (UniProt P04223)
Assay: T2 cell assay: peptide-induced stabilisation of surface K^k on K^k-expressing T2 cells after overnight incubation, stained with a class I-specific antibody

binding: binds
Binder: EEKKGNYV [EEKKGNYV (SEQ ID NO: 3) peptide]
